Experiments:
[1] = test system: human osteoclasts (OCs); conditions: OCs on Biocoat Osteologic slides, qualitative evaluation
Method: The ability of OCs to perform a physiological function of degrading the inorganic matrix was assessed by means of the ‘Pit Assay’, in which the OCs were cultured on Biocoat Osteologic (BD Bioscience) slides according to the procedure described in detail above.

[2] = test system: human mesenchymal stem cells (MSCs); conditions: 72 h, 33 μM
[3] = test system: human mesenchymal stem cells (MSCs); experiment: Mineralisation assay on MSCs (Alizarin Red); type: cell-based; conditions: osteogenic conditions, 21 days, dose dependence
Method: The evaluation of the functional capacity to deposit inorganic matrix on the part of MSC cells was evaluated with an in vitro mineralisation assay, according to an already consolidated method (Grassi F. et al. J. Tissue Eng Reg Med, 2013); MSC cells were maintained under culture for 21 days in the presence of […] of ascorbic acid, 2 mM of β-glycerophosphate and 100 nM of dexamethasone. The medium was changed twice a week with the addition of DM-22 or alendronate at the specified concentrations. Finally, the mineralised matrix was visualised by staining with Alizarin Red and quantified by spectrophotometry (Nanoquant, Tecan Group, Mannedorf, Switzerland).

NCCCC(O)(P(=O)(O)O)P(=O)(O)O [alendronate, reference compound]
inhibition of erosive capacity of OCs (pits, qualitative) [1]: inhibits the erosive capacity of OCs starting from the lowest concentration
cellular toxicity (LDH assay) [2]: significant cellular toxicity
mineralising capacity of MSCs (Alizarin Red) [3]: progressive, dose-dependent inhibition

— patent US10016444B2, “Molecules for bone tissue regeneration” (ISTITUTO ORTOPEDICO RIZZOLI, priority 2014, dated 2018)
